# Results taken from PubChem BioAssay (NCATS).
# The list shows a part of the results. The main result of the screen is listed elsewhere. These columns were measured beside it and carry no call. Compounds called inactive in the main read-out are mostly missing here. Words in brackets tell the shape of the fitted curve; partial curves, single points and poor fits give uncertain potencies.
# Experiment: qHTS for identification of novel therapeutic agents for treatment of microphthalmiaassociated transcription factor (MiT) renal cell carcinoma (RCC) (AID 1963991)
# Conditions: CellTiter-Glo, 48 h; for z-score: stronger effect = lower value
# In short: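 Viability of three TFE3-fusion renal carcinoma lines measured by CellTiter-Glo after 48 h treatment with each of 1912 compounds at 11 concentrations. Responses scaled between DMSO (100%) and empty wells (0%) before curve fitting.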
# [1] = TFE3-RCC UOK109 viability, measured here: UOK109 Z-AUC
# [2] = TFE3-RCC viability, measured here: UOK124 Z-AUC
# [3] = TFE3-RCC viability, measured here: UOK124 cell viability
# [4] = TFE3-RCC viability, measured here: UOK145 Z-AUC
# [5] = TFE3-RCC viability, measured here: UOK145 cell viability
Compound,z-score [1],z-score [2],AC50 [3],z-score [4],AC50 [5]
COc1cccc2cc(-c3nc(C4CCC(C(=O)O)CC4)n4ncnc(N)c34)[nH]c12 (stereo not given),-0.32,-0.42,"11.8 µM [falling, full curve]",-0.295,"5.26 µM [falling, partial curve]"
CCC(=O)OCC(=O)[C@@]1(OC(=O)CC)[C@@H](C)C[C@@H]2[C@H]3CCC4=CC(=O)C=C[C@]4(C)[C@@]3(F)[C@@H](O)C[C@@]21C,-0.892,0.648,"18.7 µM [falling, partial curve, poor fit]",1.84,"5.26 µM [falling, partial curve]"
CC(C)[C@H](CO)Nc1nc(Nc2ccc(C(=O)O)c(Cl)c2)c2ncn(C(C)C)c2n1,-0.113,0.277,"20.9 µM [falling, single point]",-1.25,"26.4 µM [falling, partial curve, poor fit]"
CN1CCC(COc2cnc(-c3cccc(Cn4nc(-c5cccc(C#N)c5)ccc4=O)c3)nc2)CC1,-1.16,0.306,"8.33 µM [falling, single point]",-1.7,"0.469 µM [falling, full curve]"
CO[C@H]1C[C@@H]2CC[C@@H](C)[C@@](O)(O2)C(=O)C(=O)N2CCCC[C@@H]2C(=O)O[C@H]([C@H](C)C[C@@H]2CC[C@H](OC(=O)C(C)(CO)CO)[C@H](OC)C2)CC(=O)[C@H](C)C=C(C)[C@@H](O)[C@@H](OC)C(=O)[C@H](C)C[C@H](C)C=CC=CC=C1C,-0.0641,0.132,"33.2 µM [falling, single point]",-0.791,"23.5 µM [falling, partial curve, poor fit]"
COc1cc(OC)c(C=CS(=O)(=O)Cc2ccc(OC)c(NCC(=O)O)c2)c(OC)c1,-0.596,-0.99,"0.166 µM [falling, full curve]",0.171,"0.743 µM [falling, full curve]"
C=CCNc1c(O)cc2c(O)c1C[C@@H](C)C[C@H](OC)[C@@H](O)[C@@H](C)C=C(C)[C@H](OC(N)=O)[C@@H](OC)C=CC=C(C)C(=O)N2,-0.0125,-0.38,"0.469 µM [falling, full curve]",-1.41,"0.59 µM [falling, full curve]"
CC(C)n1c(C=C[C@H](O)C[C@H](O)CC(=O)O)c(-c2ccc(F)cc2)c2ccccc21,-0.288,-0.181,"1.48 µM [falling, full curve]",0.408,"18.7 µM [falling, partial curve]"
COc1cc2c(cc1O)CCC1C2CC[C@@]2(C)C1CC[C@@H]2O (stereo not given in full),0.265,-0.462,"3.32 µM [falling, full curve]",0.285,"7.43 µM [falling, full curve]"
COc1ccc(-c2ccc3c(N4CCOCC4)nc(N4C[C@@H](C)O[C@@H](C)C4)nc3n2)cc1CO,-0.615,-0.739,"1.48 µM [falling, full curve]",-0.668,"1.87 µM [falling, full curve]"
C[C@@H]1CN(CC(=O)Nc2ccc3c(c2)Cc2cccc(-c4cc(=O)cc(N5CCOCC5)o4)c2S3)C[C@H](C)O1,-0.0411,0.164,"7.43 µM [falling, full curve]",0.68,"16.6 µM [falling, partial curve]"
Cc1cc(Nc2cc(N3CCN(C)CC3)nc(C=Cc3ccccc3)n2)n[nH]1,-0.0936,-0.896,"12.1 µM [falling, partial curve]",-0.0258,"34 µM [falling, partial curve]"
O=c1[nH]c(=O)n([C@H]2C[C@@H](O)[C@@H](CO)O2)cc1C(F)(F)F,0.697,-0.157,"8.33 µM [falling, full curve]",0.135,"10.5 µM [falling, partial curve]"
CC(C)(N)C(=O)N[C@H](COCc1ccccc1)C(=O)N1CCC2(CC1)CN(S(C)(=O)=O)c1ccccc12,0.666,0.697,"23.5 µM [falling, partial curve]",0.48,"23.5 µM [falling, partial curve, poor fit]"
CCS(=O)(=O)N1CC(CC#N)(n2cc(-c3ncnc4[nH]ccc34)cn2)C1,0.859,-1.3,"0.0059 µM [falling, full curve, poor fit]",0.823,"26.4 µM [falling, single point]"
Fc1cc(-c2cccc3ncc(-c4cnn(C5CCNCC5)c4)nc23)cc(F)c1CN1CCOCC1,0.0251,-0.336,"9.35 µM [falling, full curve]",0.0908,"20.9 µM [falling, partial curve]"
COCCOc1nc(-c2ccc(Cl)c(Cl)c2)n(-c2ccc(NC(=O)CCl)cc2)n1,0.127,0.569,"8.33 µM [falling, partial curve]",0.373,"29.6 µM [falling, single point]"

# 2 entries drawn at random from those above, as already listed:
Compound,z-score [1],z-score [2],AC50 [3],z-score [4],AC50 [5]
Fc1cc(-c2cccc3ncc(-c4cnn(C5CCNCC5)c4)nc23)cc(F)c1CN1CCOCC1,0.0251,-0.336,"9.35 µM [falling, full curve]",0.0908,"20.9 µM [falling, partial curve]"
C=CCNc1c(O)cc2c(O)c1C[C@@H](C)C[C@H](OC)[C@@H](O)[C@@H](C)C=C(C)[C@H](OC(N)=O)[C@@H](OC)C=CC=C(C)C(=O)N2,-0.0125,-0.38,"0.469 µM [falling, full curve]",-1.41,"0.59 µM [falling, full curve]"
